Results taken from the supplement of paper PMC6445147.
Values scatter widely in this assay.

B1: human tRNA-Pro; a variant is named by its letters at N, in order (parent)
chain: GGCTCGTTGGTCTAGNGGTATGATTCTCGCTTAGGGTGCGAGAGGTCCCGGGTTCNNATCCCGGACGAGCCC

Variants of: B1
Experiment: tRNA 3' processing efficiency (processed reads / all reads, maximum-likelihood estimate) (fraction); higher = more efficient 3' processing
Details: HEK293T; construct: no Pol-II promoter ((-)CMV library)

Row | Variant | tRNA 3' processing efficiency
1 | GAA A14T T19A A58G T59G | 0.01
2 | AAA G18A T19C A20C A58T T59A | 0.25
3 | AAA A20T T53G A58C | 0.56
4 | GAA G44A T59C | 0.4
5 | GAA T8G A14T G17C G18C A58G T59G | 0.2
6 | TAA G15A A33G A58T | 0.25
7 | GAA G51T T59G | 0.2
8 | GAA G15C T19A T53G | 0.25
9 | GAA A14G G18T A58T T59C | 0.2
10 | GAA A14T A20C A33T A58G T59A | 0.25
11 | GAA G9A A33G | 0.67
12 | GAA G15A A33G A58T | 0.25
13 | GAA G15A A33G A58G | 0.2
14 | AAA A14T T19A T53A | 0.13
15 | GAA G9A A14T T53A T59C | 0.22
16 | TAA G15T T53A A58T | 0.17
17 | AAA T8C T19G A20T T53A T59A | 0.33
18 | GAA A14G G17T T53A A58T T59A | 0.17
19 | GAA A33G C39T A58T | 0.25
20 | TAA G9T A14T A58T T59C | 0.2
21 | GAA A33G G36C A58G | 0.62
22 | GAA A33G G36C A58T | 0.29
23 | CAA G15C T19A A58T | 0.2
24 | AAA G17C A58G T59G | 0.2

Row | Variant | tRNA 3' processing efficiency
25 | GAA A14T G52C T53C | 0.4
26 | GAA G9A A20T A58G T59C | 0.25
27 | GAA G15A T19A A58G T59A | 0.25
28 | AAA G51A T53G | 0.4
29 | TAA A33G | 0.96
30 | GAA G15C T19A A58G T59G | 0.25
31 | GAA T8G A14G G15T A20T A33T A58C | 0.57
32 | GAA G51T A58T | 0.25
33 | CAA A14G G15T T59G | 0.2
34 | AAA A14T A20T G51A | 0.17
35 | CAA A14T T19G T59C | 0.57
36 | GAA G15C T53G G63A | 0.14
37 | CAA G15A T54A A58T | 0.73
38 | GAA T8G G9T T19A A58C T59A | 0.4
39 | CAA T8A G9T G15C T53A | 0.29
40 | GAA A14T A20G A58T T59C | 0.25
41 | AAA G9A A20T A58G T59G | 0.5
42 | GAA G9A A14G T19A C70T | 0.5
43 | GAA A14G G51A T53A | 0.4
44 | GAA G18T A33G A58T | 0.2
45 | GAA G9A G51A A58T | 0.25
46 | GAA G15A G18A A20T T59G | 0.57
47 | AAA A33G C55T | 0.2
48 | CAA G9A T19A T59C | 0.25

Fetched one by one from the list above (four):
Row | Variant | tRNA 3' processing efficiency
44 | GAA G18T A33G A58T | 0.2
37 | CAA G15A T54A A58T | 0.73
40 | GAA A14T A20G A58T T59C | 0.25
42 | GAA G9A A14G T19A C70T | 0.5

Next part.

Row | Variant | tRNA 3' processing efficiency
49 | GAA A14G T19G G22A A58T | 0.4
50 | GAA G9A G18A T53A T59A | 0.43
51 | GAA C48T T59C | 0.56
52 | CAA G9T A58T T59G | 0.25
53 | GAA T8A G15A G18C A58T | 0.25
54 | GAA T8C T19A A20C C55T | 0.2
55 | TAA C55A A58T T59A | 0.6
56 | AAA A20G A58T T59A | 0.5
57 | GAA A14G G17A A58C T59C | 0.17
58 | GAA G1T G2T C3T T8C G17C A58C | 0.25
59 | CAA A20G A58T T59A | 0.4
60 | GAA T8C A14C T53G A58T T59G | 0.56
61 | GAA T8C A14T A58G T59G | 0.5
62 | CAA G9C A20T C55G | 0.5
63 | GAA G17C G18C A20G C55T | 0.4
64 | CAA G15T G50A T59G | 0.62
65 | GAA G9A A14T A58G T59C | 0.2
66 | GAA G9A G17C A20T G51A | 0.2
67 | GAA G50A A58T | 0.29
68 | GAA T8C G9T A20G T59A | 0.17
69 | CAA G9C G15C G17C C55T | 0.6
70 | GAA G9T A14G G18A T19G A58G T59C | 0.4
71 | GAA T8C A14G G51A T59A | 0.11
72 | GAA T8C G15A G17A T19C T59G | 0.4

Row | Variant | tRNA 3' processing efficiency
73 | AAA A14G T54A | 0.33
74 | CAA G15C A58G T59G | 0.25
75 | GAA A33G T59C | 0.44
76 | GAA A20G T53A A58G T59A | 0.25
77 | CAA T8C G51A T59A | 0.38
78 | AAA G9A G15T A58C | 0.57
79 | TAA A14T G15C T59A | 0.25
80 | GAA C3T T4G G6T T8A | 0.67
81 | GAA T8C G9A A58G | 0.2
82 | GAA G9T A33G A58C | 0.83
83 | GAA G18T C49G | 0.25
84 | GAA G15C T53A T59G | 0.2
85 | TAA G9A A33G A58T | 0.2
86 | CAA A20G T53C A58T | 0.62
87 | GAA G9A A20T A33G | 0.83
88 | CAA A14T A20C T53A T54A | 0.14
89 | TAA G9A T19A T53A | 0.33
90 | GAA G51A C55T | 0.13
91 | CAA T8C G15C C55T A58G | 0.25
92 | AAA G17T G18C A58T T59G | 0.38
93 | AAA A20T G51T T59G | 0.38
94 | GAA G9A A33G A58T | 0.34
95 | CAA A14G T19A A20C T59G | 0.5
96 | GAA G9A T19G T53G A58G T59G | 0.83

An excerpt of these results, as tab-separated lines.
Row	Variant	tRNA 3' processing efficiency
82	GAA G9T A33G A58C	0.83
83	GAA G18T C49G	0.25
84	GAA G15C T53A T59G	0.2
85	TAA G9A A33G A58T	0.2

(cont.)

Row | Variant | tRNA 3' processing efficiency
97 | AAA T8C G9A G15C A58T | 0.13
98 | GAA G17T G51C T59G | 0.22
99 | GAA C3T T59C | 0.25
100 | AAA A14T T31C A58T | 0.4
101 | CAA G51T | 0.42
102 | GAA G15C G22A A58C | 0.33
103 | TAA G17T A58G T59A | 0.4
104 | GAA A14T G18T T19C A58C T59G | 0.33
105 | GAA G18T T19C A58T | 0.33
106 | CAA G9T A14T T19C T53C | 0.25
107 | TAA A20T T53C T59G | 0.25
108 | GAA A14G G50A | 0.4
109 | GAA T8C G9A T19A A58T | 0.5
110 | TAA T8C T53G T54C T59G | 0.2
111 | TAA G9A C55T A58G T59A | 0.2
112 | GAA A20G A33G | 0.17
113 | GAA G18T T46A T53A | 0.57
114 | CAA G9A A58T T59G | 0.4
115 | CAA A20G G35A T54A | 0.13
116 | GAA G9A G15A G17T T59C | 0.57
117 | CAA A14G T19C T53A | 0.5
118 | GAA T8C G9A A14C G18A T19C A58C | 0.17
119 | CAA G9T T19C C55T | 0.17
120 | GAA T8G A14G G15A T19A A58T | 0.4

Row | Variant | tRNA 3' processing efficiency
121 | TAA T8C A14C G17C T19G A20G A58C | 0.38
122 | GAA G1T C5T | 0.17
123 | AAA G15A T53A A58G | 0.33
124 | CAA C55G T59A | 0.29
125 | AAA A14T A20C T53C T59C | 0.25
126 | CAA A33G A58G T59A | 0.79
127 | GAA T8G A14C A20T T53A | 0.25
128 | GAA G18A A20C T59G | 0.5
129 | GAA A14G G63A | 0.14
130 | CAA T8C G9C G17C G18C | 0.57
131 | GAA G9A A58C T59C | 0.29
132 | AAA G9A T53A | 0.5
133 | GAA G36A T53G A58G T59G | 0.25
134 | AAA T8C G9A A58C T59G | 0.77
135 | GAA G15A G17C T19A A58T | 0.25
136 | GAA G1T G9A G15C | 0.43
137 | GAA G9T G15A C55G A58G | 0.33
138 | GAA C3T T4G G6T G9T A20T | 0.5
139 | CAA T8C T19A T53A | 0.72
140 | GAA G9A A14G T19A T54A T59C | 0.38
141 | GAA G15T G18T T19C A33G A58C | 0.5
142 | GAA G9A A14C G15C T59G | 0.25
143 | GAA T8G G15A G18C T19C A58T | 0.17
144 | CAA G9T A14T C55T | 0.5

Row | Variant | tRNA 3' processing efficiency
145 | CAA G15C T19G T59G | 0.17
146 | GAA T8C T19C A58C T59C | 0.4
147 | CAA G15C T53A A58G | 0.4
148 | TAA G9T T19C T54A | 0.5
149 | TAA G51A T53A A58G | 0.38
150 | GAA A14T G18A T19A T59A | 0.25
151 | GAA A20C G44A A58T | 0.25
152 | AAA T8A G18C C55T T59G | 0.2
153 | CAA A33G | 0.62
154 | GAA A14T G15C G18A T59A | 0.25
155 | GAA A14G T19A A20G T59C | 0.57
156 | GAA T8G A14T G18A T19C A20T A58C | 0.17
157 | TAA A14G T54A C55G | 0.2
158 | TAA G15C T19C A58T T59A | 0.14
159 | GAA T8A G17A G18C T53C | 0.25
160 | GAA G1C G2T C3T | 0.25
161 | CAA T8G A20T T59A | 0.14
162 | GAA A14T T19A A20C T59G | 0.25
163 | TAA G50T | 0.38
164 | GAA A14T T53A A58G T59A | 0.56
165 | AAA A33G | 0.33
166 | CAA G50T C55T | 0.08
167 | CAA A14G G17A A58T | 0.57
